No constants are given. Whether binding was seen depends on the method and setting. Binding seen in cells or lysates may run through a third protein. Some results given as binding are weak or reduced against the parent protein; the word gives no strength. For some of these results: Where a sequence is shown, tags or fusion partners need not be part of it.

By UniProt entry, the sequences of proteins in these tests, tags left out.
UniProt P62491: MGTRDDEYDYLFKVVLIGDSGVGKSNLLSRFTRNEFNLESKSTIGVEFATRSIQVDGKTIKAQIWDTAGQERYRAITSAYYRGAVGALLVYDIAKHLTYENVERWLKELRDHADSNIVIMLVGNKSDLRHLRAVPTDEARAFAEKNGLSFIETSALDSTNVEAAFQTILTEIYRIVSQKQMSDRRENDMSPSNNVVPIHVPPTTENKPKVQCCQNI
UniProt Q96A65: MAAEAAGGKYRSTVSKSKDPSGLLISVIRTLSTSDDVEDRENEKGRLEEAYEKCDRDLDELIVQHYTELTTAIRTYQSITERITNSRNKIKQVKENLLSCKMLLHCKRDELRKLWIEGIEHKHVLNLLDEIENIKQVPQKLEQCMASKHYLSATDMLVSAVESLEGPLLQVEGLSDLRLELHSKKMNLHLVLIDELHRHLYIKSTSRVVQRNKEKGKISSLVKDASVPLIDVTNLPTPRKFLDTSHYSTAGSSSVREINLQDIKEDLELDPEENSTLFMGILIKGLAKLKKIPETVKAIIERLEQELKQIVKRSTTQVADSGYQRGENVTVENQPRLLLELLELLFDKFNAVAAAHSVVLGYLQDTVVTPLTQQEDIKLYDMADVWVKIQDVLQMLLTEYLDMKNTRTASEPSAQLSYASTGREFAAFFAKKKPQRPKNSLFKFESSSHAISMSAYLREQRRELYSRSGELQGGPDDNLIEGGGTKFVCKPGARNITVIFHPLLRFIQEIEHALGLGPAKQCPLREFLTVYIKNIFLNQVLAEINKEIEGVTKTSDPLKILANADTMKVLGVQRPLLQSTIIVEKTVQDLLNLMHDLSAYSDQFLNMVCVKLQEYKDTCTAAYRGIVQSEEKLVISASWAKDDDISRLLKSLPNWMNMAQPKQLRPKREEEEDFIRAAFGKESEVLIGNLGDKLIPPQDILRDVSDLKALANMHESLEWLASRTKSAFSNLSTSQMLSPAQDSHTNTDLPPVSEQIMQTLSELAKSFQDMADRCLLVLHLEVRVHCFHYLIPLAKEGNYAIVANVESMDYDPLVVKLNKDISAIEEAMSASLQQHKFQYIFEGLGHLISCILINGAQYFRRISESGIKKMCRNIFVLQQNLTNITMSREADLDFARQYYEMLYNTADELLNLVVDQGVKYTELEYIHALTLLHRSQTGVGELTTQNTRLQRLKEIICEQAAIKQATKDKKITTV
UniProt Q9UPT5: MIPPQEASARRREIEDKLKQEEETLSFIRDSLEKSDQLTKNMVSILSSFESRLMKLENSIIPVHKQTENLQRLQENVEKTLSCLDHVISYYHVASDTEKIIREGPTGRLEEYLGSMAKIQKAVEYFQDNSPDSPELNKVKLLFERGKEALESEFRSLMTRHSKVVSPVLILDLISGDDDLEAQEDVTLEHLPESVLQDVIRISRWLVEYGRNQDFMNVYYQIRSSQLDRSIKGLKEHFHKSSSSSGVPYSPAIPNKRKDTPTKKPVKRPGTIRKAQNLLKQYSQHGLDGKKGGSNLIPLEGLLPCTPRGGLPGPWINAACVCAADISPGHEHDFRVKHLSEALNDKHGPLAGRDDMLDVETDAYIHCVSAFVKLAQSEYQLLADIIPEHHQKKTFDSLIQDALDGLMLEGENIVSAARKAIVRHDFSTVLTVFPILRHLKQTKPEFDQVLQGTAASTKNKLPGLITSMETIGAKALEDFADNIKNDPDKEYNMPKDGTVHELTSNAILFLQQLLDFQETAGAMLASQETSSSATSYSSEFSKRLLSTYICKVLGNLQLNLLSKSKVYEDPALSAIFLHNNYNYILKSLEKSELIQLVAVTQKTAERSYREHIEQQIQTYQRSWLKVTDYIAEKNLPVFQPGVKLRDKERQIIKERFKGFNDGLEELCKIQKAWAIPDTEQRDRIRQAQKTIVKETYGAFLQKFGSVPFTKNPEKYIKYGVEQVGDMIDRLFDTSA
UniProt Q8TAG9: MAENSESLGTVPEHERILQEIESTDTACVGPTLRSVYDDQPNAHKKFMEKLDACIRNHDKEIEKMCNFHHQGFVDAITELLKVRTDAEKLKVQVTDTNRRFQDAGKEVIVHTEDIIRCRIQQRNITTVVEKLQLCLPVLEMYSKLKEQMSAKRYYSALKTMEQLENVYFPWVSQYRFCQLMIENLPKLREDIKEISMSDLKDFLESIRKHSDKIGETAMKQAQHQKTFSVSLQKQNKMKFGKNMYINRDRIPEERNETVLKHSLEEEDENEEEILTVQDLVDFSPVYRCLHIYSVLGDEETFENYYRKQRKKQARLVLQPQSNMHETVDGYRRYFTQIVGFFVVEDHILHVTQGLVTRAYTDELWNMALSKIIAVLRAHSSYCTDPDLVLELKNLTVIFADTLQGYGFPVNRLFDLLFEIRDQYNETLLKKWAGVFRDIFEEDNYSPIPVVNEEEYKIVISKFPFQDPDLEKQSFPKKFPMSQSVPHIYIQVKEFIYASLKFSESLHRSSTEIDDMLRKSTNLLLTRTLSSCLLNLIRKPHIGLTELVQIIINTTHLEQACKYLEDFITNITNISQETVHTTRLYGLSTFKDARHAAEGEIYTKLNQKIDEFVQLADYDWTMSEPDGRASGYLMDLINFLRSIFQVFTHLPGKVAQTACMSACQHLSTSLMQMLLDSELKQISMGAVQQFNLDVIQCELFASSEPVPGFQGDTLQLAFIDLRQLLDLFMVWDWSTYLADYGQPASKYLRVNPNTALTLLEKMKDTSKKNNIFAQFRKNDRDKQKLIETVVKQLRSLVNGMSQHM

Common to all, as to assay: co-IP
One test deals with T1, wild-type (WT) GRAB-GFP (UniProt Q8TBN0).
T1 sequence: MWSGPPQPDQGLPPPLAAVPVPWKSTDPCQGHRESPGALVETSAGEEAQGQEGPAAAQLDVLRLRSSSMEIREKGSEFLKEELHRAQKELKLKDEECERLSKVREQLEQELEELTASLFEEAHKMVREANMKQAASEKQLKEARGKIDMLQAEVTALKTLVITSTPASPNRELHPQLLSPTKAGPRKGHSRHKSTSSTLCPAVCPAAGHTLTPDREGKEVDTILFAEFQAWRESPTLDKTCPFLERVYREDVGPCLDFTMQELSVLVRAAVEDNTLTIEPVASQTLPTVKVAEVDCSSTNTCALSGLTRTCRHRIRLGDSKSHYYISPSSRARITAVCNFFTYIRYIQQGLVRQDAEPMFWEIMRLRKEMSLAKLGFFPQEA

The next test concerns the target T2, GFP-Rab3a (UniProt P20336).
T2 sequence: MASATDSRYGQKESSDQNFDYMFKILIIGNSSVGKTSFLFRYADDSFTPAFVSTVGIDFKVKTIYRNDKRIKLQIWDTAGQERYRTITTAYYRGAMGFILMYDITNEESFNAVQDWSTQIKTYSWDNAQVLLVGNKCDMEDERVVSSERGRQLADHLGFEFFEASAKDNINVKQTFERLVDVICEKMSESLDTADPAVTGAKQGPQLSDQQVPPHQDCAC

Another test deals with GFP-Rab11a (UniProt P62491).
A further test addresses mCherry-Rab11a (UniProt P62491).

For “mCherry-Rab11a (from UniProt P62491 1-216)”, the binding entry in the test with wild-type (WT) GRAB-GFP and in the test with GFP-Rab3a was “binds” each time.
With Sec8 (from UniProt Q96A65 1-974), in the test with GFP-Rab11a, the binding result was “binds”.
The same measure, in the same setting: then Exo70 (from UniProt Q9UPT5 1-735), with “binds”; and Sec15a-myc (from UniProt Q8TAG9 1-804), with “binds”.

B1: wild-type (WT) GRAB-GFP (protein, UniProt Q8TBN0 1-382)
chain: T1 sequence
On to B1, for which the binding result in the test with mCherry-Rab11a is “binds”.

B2: GFP-Rab3a (protein, UniProt P20336 1-220)
chain: T2 sequence
B2: the binding result in the test with mCherry-Rab11a was “binds”.

For the origin of these results see article doi:10.1101/2021.03.06.434066.
